Laboratory results published in publication PMC4302234 (Amino Acids, 2014).
End groups of sequences in plain letters are not given here. HELM strings list residues between dots; [ac] is acetyl, [am] amide, other brackets name non-standard units.

assay: general procedure: Fmoc solid-phase peptide synthesis; Preloaded Wang resins (0.58–0.79 mM/g); TCTU/HOBt/DIEA; conditions: whole synthesis, RP-HPLC, trifluoroacetate salts

Row | Substance | final HPLC purity [%]
1 | IYEAVNKVSPRAGQF | 99.0
2 | PEPTIDE1{V.T.G.R.F.A.G.H.P.A.A.Q}$$$$V2.0 | 97.0
3 | PEPTIDE1{Y.I.N.Q.M.P.Q.K.S.R.E.A}$$$$V2.0 | 96.0
4 | PEPTIDE1{Y.I.N.Q.M.P.Q.K.S.R.E}$$$$V2.0 | 91.0
